{
  "source": "the supplement of paper PMC8732350",
  "note": "Where a name gives a salt, the structure may show the parent alone. ± gives the standard deviation of the averaged measurements. The list shows a part of the results. Most values lie within the scatter of the assay; repeated measurements hardly agree.",
  "data": [
    {"test_system": "A549", "test": "surface PD-L1 immunofluorescence intensity relative to IFN-gamma-only control (ratio); higher = more PD-L1 expression", "conditions": "10 µM; exposure time 24 h; IFN-gamma 100 ng/mL", "values": [
      {"smiles": "CN1C(=O)OC(C)(C)C1=O", "note": "[Trimethadione]", "surface PD-L1 immunofluorescence intensity": 1.04},
      {"smiles": "CN(C/C=C/c1ccccc1)Cc1cccc2ccccc12", "note": "[Naftifine hydrochloride]", "surface PD-L1 immunofluorescence intensity": 0.938},
      {"smiles": "OCCN1CCN(CCCN2c3ccccc3C=Cc3ccccc32)CC1", "note": "[Opipramol dihydrochloride]", "surface PD-L1 immunofluorescence intensity": 1.08},
      {"smiles": "O=C(O)C=C1CCCc2ccccc2C1O", "note": "(stereo not drawn)", "surface PD-L1 immunofluorescence intensity": 1.01},
      {"smiles": "COc1cccc(Nc2c(C(N)=O)cnc3c(C)cc(S(=O)(=O)c4cccc(C(=O)N(C)C)c4)cc23)c1", "surface PD-L1 immunofluorescence intensity": 0.942},
      {"smiles": "CC(=O)N(OCc1ccccc1)[C@H]1c2cc(C#N)ccc2OC(C)(C)[C@H]1O", "surface PD-L1 immunofluorescence intensity": 0.932},
      {"smiles": "CC(C)(C)c1nc(-c2cccc(NS(=O)(=O)c3c(F)cccc3F)c2F)c(-c2ccnc(N)n2)s1", "surface PD-L1 immunofluorescence intensity": "1.06 ± 0.13"},
      {"smiles": "OCC1OC(n2cnc3c(NC4CCCC4)nc(Cl)nc32)C(O)C1O", "note": "(stereo not drawn) [2-Chloro-N6-cyclopentyladenosine]", "surface PD-L1 immunofluorescence intensity": 0.906},
      {"smiles": "N[C@@H](Cc1cc(CP(=O)(O)O)cc(-c2ccccc2Cl)c1)C(=O)O", "surface PD-L1 immunofluorescence intensity": 1.02},
      {"smiles": "O=c1c(-c2ccc(O)cc2)coc2cc(O)ccc12", "note": "[Daidzein]", "surface PD-L1 immunofluorescence intensity": 0.949},
      {"smiles": "CC(C)NC[C@H](O)COc1cccc2ccccc12", "note": "[(S)-(-)-Propranolol hydrochloride]", "surface PD-L1 immunofluorescence intensity": 0.902},
      {"smiles": "CC(C)NC[C@H](O)COc1cccc2ccccc12", "note": "[(S)-propranolol hydrochloride]", "surface PD-L1 immunofluorescence intensity": 1.05},
      {"smiles": "CC1(C)CC[C@]2(C(=O)O)CC[C@]3(C)C(=CC[C@@H]4[C@@]5(C)CC[C@H](O)C(C)(C)[C@@H]5CC[C@]43C)[C@@H]2C1", "note": "[Oleanolic Acid (Caryophyllin)]", "surface PD-L1 immunofluorescence intensity": 0.934},
      {"smiles": "O=C(O)CCCCC(CCSCc1ccccc1)SCc1ccccc1", "note": "(stereo not drawn)", "surface PD-L1 immunofluorescence intensity": 0.954},
      {"smiles": "CS(=O)(=O)c1ccc(-c2cnc(N)c(C(=O)Nc3ccccc3)n2)cc1", "surface PD-L1 immunofluorescence intensity": "1.02 ± 0.02"},
      {"smiles": "NS(=O)(=O)c1cc(Cl)c(Cl)c(S(N)(=O)=O)c1", "note": "[Dichlorphenamide]", "surface PD-L1 immunofluorescence intensity": 0.903},
      {"smiles": "Cc1ccnc(NS(=O)(=O)c2ccc(NC(=O)Nc3ccc(S(=O)(=O)Nc4nccc(C)n4)cc3)cc2)n1", "surface PD-L1 immunofluorescence intensity": 0.928},
      {"smiles": "O=C(O)C1=CO[C@@H](O[C@@H]2O[C@H](CO)[C@@H](O)[C@H](O)[C@H]2O)[C@@H]2C(CO)=CC[C@H]12", "note": "[Geniposidic acid]", "surface PD-L1 immunofluorescence intensity": 0.905},
      {"smiles": "CCN1CCCC(OC(=O)C(c2ccccc2)c2ccccc2)C1", "note": "(stereo not drawn) [Piperidolate hydrochloride]", "surface PD-L1 immunofluorescence intensity": 1.09},
      {"smiles": "CN(C)CCCSC(=N)N", "note": "[Dimaprit dihydrochloride]", "surface PD-L1 immunofluorescence intensity": "1.05 ± 0.063"},
      {"smiles": "CN(C)CCOc1ccc(-c2nc(-c3ccncc3)c(-c3ccc4c(c3)CC/C4=N\\O)[nH]2)cc1", "surface PD-L1 immunofluorescence intensity": 0.96},
      {"smiles": "Cc1onc(-c2c(F)cccc2Cl)c1C(=O)N[C@@H]1C(=O)N2[C@@H]1SC(C)(C)[C@@H]2C(=O)O", "note": "[Flucloxacillin sodium]", "surface PD-L1 immunofluorescence intensity": 0.962},
      {"smiles": "C=CCNC(=O)c1cc([N+](=O)[O-])cc2c(=O)[nH]c(Nc3ccc(Cl)c(Cl)c3)nc12", "surface PD-L1 immunofluorescence intensity": 0.995},
      {"smiles": "C[C@]12CC[C@@H](O)C[C@@H]1CC[C@@H]1[C@@H]2CC[C@]2(C)C=CC[C@@H]12", "note": "[3a, 5a-Androstenol]", "surface PD-L1 immunofluorescence intensity": 1.02},
      {"smiles": "C/C(=C\\C(=O)Nc1ccccc1C(=O)O)c1ccc2ccccc2c1", "surface PD-L1 immunofluorescence intensity": 0.943},
      {"smiles": "Cc1cc(Cl)ccc1OCCCC(=O)NO", "note": "[Droxinostat]", "surface PD-L1 immunofluorescence intensity": 1.08},
      {"smiles": "O=C(NCCN1CCOCC1)c1ccc(Cl)cc1", "note": "[Moclobemide]", "surface PD-L1 immunofluorescence intensity": 1.02},
      {"smiles": "Cc1ccc(-n2sc(=O)n(Cc3ccc(F)cc3)c2=O)cc1", "surface PD-L1 immunofluorescence intensity": 0.999},
      {"smiles": "COc1ccc2c(c1)c(CC(=O)N1CCOCC1)c(C)n2C(=O)c1ccc(Cl)cc1", "surface PD-L1 immunofluorescence intensity": 0.943},
      {"smiles": "CC(C)(C)n1nc(-c2cccc3ccccc23)c2c(N)ncnc21", "note": "[1-Naphthyl PP1]", "surface PD-L1 immunofluorescence intensity": 1.1},
      {"smiles": "CNCCCC12CCC(c3ccccc31)c1ccccc12", "note": "[Maprotiline hydrochloride]", "surface PD-L1 immunofluorescence intensity": 1.17},
      {"smiles": "COc1ccc(CCN2CCN(CCCc3ccccc3)CC2)cc1OC", "surface PD-L1 immunofluorescence intensity": 0.942},
      {"smiles": "Cc1coc2c1C(=O)C(=O)c1c-2ccc2c1CCCC2(C)C", "note": "[Tanshinone IIA]", "surface PD-L1 immunofluorescence intensity": 0.955},
      {"smiles": "Cc1cn2cc(C(=O)N(C)CCO)cc(N[C@@H]3CCOc4cccc(C)c43)c2n1", "surface PD-L1 immunofluorescence intensity": 1.05},
      {"smiles": "CC1(C)C[C@@H]1C(=O)N/C(=C\\CCCCSC[C@H](N)C(=O)O)C(=O)O", "note": "[Cilastatin]", "surface PD-L1 immunofluorescence intensity": 1.1},
      {"smiles": "CC1(C)C[C@@H]1C(=O)N/C(=C\\CCCCSC[C@H](N)C(=O)O)C(=O)O", "note": "[Cilastatin sodium]", "surface PD-L1 immunofluorescence intensity": 0.987},
      {"smiles": "CCCCCCC(=O)OC1CC(C)(C)NC(C)(C)C1", "note": "[TMPH hydrochloride]", "surface PD-L1 immunofluorescence intensity": 1.08},
      {"smiles": "Oc1cc2c(cc1O)CN(C(=S)NCCc1ccc(Cl)cc1)CCC2", "note": "[Capsazepine]", "surface PD-L1 immunofluorescence intensity": 1},
      {"smiles": "Cc1c(C)c2c(c(C)c1OC(=O)CCC(=O)O)CC[C@@](C)(CCC[C@H](C)CCC[C@H](C)CCCC(C)C)O2", "note": "[Tocopherol succinate]", "surface PD-L1 immunofluorescence intensity": 1.01},
      {"smiles": "CC(=O)OCOC(c1cc([N+](=O)[O-])ccc1Oc1ccc(Br)cc1)P(=O)(OCOC(C)=O)OCOC(C)=O", "note": "(stereo not drawn)", "surface PD-L1 immunofluorescence intensity": 1.17},
      {"smiles": "C[C@@H]1C[C@H]2[C@@H]3C[C@H](F)C4=CC(=O)C=C[C@]4(C)[C@@]3(Cl)[C@@H](O)C[C@]2(C)[C@H]1C(=O)COC(=O)C(C)(C)C", "note": "[Clocortolone pivalate]", "surface PD-L1 immunofluorescence intensity": 0.987},
      {"smiles": "CCCCCCCC/C=C\\CCCCCCCC(=O)NCCO", "note": "[N-Oleoylethanolamide]", "surface PD-L1 immunofluorescence intensity": 1.01},
      {"smiles": "C[C@@H](O)[C@H]1C(=O)N2C(C(=O)O)=C(S[C@@H]3CN[C@H](C(=O)N(C)C)C3)[C@H](C)[C@H]12", "note": "[Meropenem]", "surface PD-L1 immunofluorescence intensity": "1.0445 ± 0.00068"},
      {"smiles": "CC(=O)NCC(=O)N[C@H](CCC(=O)O)C(=O)O", "note": "[N-Acetylglycyl-D-glutamic acid]", "surface PD-L1 immunofluorescence intensity": 0.937},
      {"smiles": "CC(=O)O[C@H]1C[C@@H]2CC[C@@H]3[C@H](CC[C@@]4(C)[C@H]3C[C@H]([N+]3(C)CCCCC3)[C@@H]4OC(C)=O)[C@@]2(C)C[C@@H]1N1CCCCC1", "note": "[Vecuronium Bromide]", "surface PD-L1 immunofluorescence intensity": 1.07},
      {"smiles": "CC(=O)O[C@H]1C[C@@H]2CC[C@@H]3[C@H](CC[C@@]4(C)[C@H]3C[C@H]([N+]3(C)CCCCC3)[C@@H]4OC(C)=O)[C@@]2(C)C[C@@H]1N1CCCCC1", "note": "[Vecuronium bromide]", "surface PD-L1 immunofluorescence intensity": 1.06},
      {"smiles": "C[C@]12C=CC(=O)C=C1CC[C@H]1[C@@H]3C[C@@H](O)[C@](O)(C(=O)CO)[C@@]3(C)C[C@H](O)[C@@]12F", "note": "[Triamcinolone]", "surface PD-L1 immunofluorescence intensity": 0.812},
      {"smiles": "C[C@]12C=CC(=O)C=C1CC[C@H]1[C@@H]3C[C@@H](O)[C@](O)(C(=O)CO)[C@@]3(C)C[C@H](O)[C@@]12F", "note": "[Triamcinolone (Aristocort)]", "surface PD-L1 immunofluorescence intensity": 0.882}
    ]}
  ]
}
